From PubChem BioAssay AID540256 (National Center for Advancing Translational Sciences (NCATS), 2011)
Where “and” joins values, the source holds several entries; their conditions need not be identical. Identical values can stand only once. In all, about 300,000 compounds went through this assay and about 3,700 (1.2%) were called active. The shares of active, inactive and inconclusive entries below differ from those in the screen. Calls follow the shape of the full dose curve; tested in HEK293 cells. Potencies of inconclusive entries are doubtful fits and often do not repeat.

Test: qHTS for Inhibitors of binding or entry into cells for Lassa Virus; also: nearly all actives have a fitted effect of over 50% in size
Settings: Lassa virus pseudotype entry inhibition, cell reporter; series mostly up to 37.9 µM
Potency is read from the fitted curve at half-maximal effect.

SMILES | Potency
CCN(CC)c1nc(-c2ccc(Cl)cc2)cc(C(F)(F)F)c1C#N | inconclusive: 5.62 µM [activator, partial curve, poor fit]
COc1ccccc1Nc1nc(N)nc(CSc2ncccn2)n1 | inactive
O=C(COC(=O)c1ccc(N2CCCC2=O)cc1)NCc1ccco1 | inconclusive: 6.51 µM [inhibitor, partial curve, poor fit]
O=P(CN1CCN(c2ccccc2)CC1)(N1CCCCC1)N1CCCCC1 | inconclusive: 6.51 µM [inhibitor, single point]
O=C1CC2(CCN(S(=O)(=O)c3ccccc3F)CC2)Oc2ccccc21 | inconclusive: 7.94 µM [inhibitor, partial curve]
COc1ccccc1NC(=O)C(=O)NCC(c1ccco1)N1CCc2ccccc21 (configuration not stated) | inconclusive: 8.91 µM [inhibitor, partial curve, poor fit]
CC(=O)Nc1cccc(C(=O)/C=C/c2ccc(Br)cc2)c1 | inconclusive: 16.4 µM [inhibitor, single point]
CC(=O)NCc1ccc(S(=O)(=O)N2CCN(S(=O)(=O)c3ccc4ccccc4c3)CC2)cc1 | inconclusive: 35.5 µM [inhibitor, single point]
CCN(C(=O)c1nn(C)c2c1CSc1ccccc1-2)c1cccc(C)c1 | inconclusive: 6.31 µM [activator, single point]
COc1ccc(N(C(=O)c2ccccc2OC)C2C=CS(=O)(=O)C2)c(OC)c1 (configuration not stated) | inactive
CN(C)c1cc(-c2ccc(F)cc2)oc(=O)c1Cl | inconclusive: 35.5 µM [activator, single point]
O=C(CSc1ncccn1)NC(=O)NCc1ccccc1 | inconclusive: 29.1 µM [inhibitor, single point]
Cc1ccnc(NC(=O)CSc2ccc3c(c2)OCCO3)c1 | inactive
CC(OC(=O)c1cccc(-n2cnnn2)c1)C(=O)N(C)c1ccccc1 (configuration not stated) | inconclusive: 15.8 µM [inhibitor, single point]
CC(C)OCCCNC(=O)Cn1c(-c2cccs2)cc2cc(F)ccc21 | inactive
Cc1ccc(N/N=C/c2cccnc2)cc1 | inconclusive: 12.6 µM [inhibitor, partial curve, poor fit]
COc1ccc(N(CC(=O)N2CCC(Cc3ccccc3)CC2)S(C)(=O)=O)cc1 | inconclusive: 1.58 µM [inhibitor, full curve, poor fit]
Clc1ccc(CSc2nnc(Cn3cnc4ccccc43)o2)cc1 | inconclusive: 23.1 µM [inhibitor, single point]
Cc1nc2c3cc(Cl)ccc3n(CCN3CCCCC3)c2s1 | inconclusive: 6.51 µM [inhibitor, full curve, poor fit]
Cc1ccc(-c2noc(C3CCCN(C(=O)c4cccc(Cl)c4)C3)n2)o1 (configuration not stated) | inconclusive: 35.5 µM [inhibitor, single point]
COc1ccc(Nc2oc(COc3cccc(C)c3)nc2C#N)cc1 | active: 11.2 µM

SMILES | Potency
O=C(Nc1cccc(NC(=O)c2ccccc2Cl)c1)c1ccc([N+](=O)[O-])o1 | inconclusive: 7.08 µM [inhibitor, full curve, poor fit]
O=C(NCCSCc1c(F)cccc1Cl)Nc1ccccc1 | inconclusive: 7.08 µM [inhibitor, partial curve, poor fit]
CCCCN(CC)CCNC(=O)c1nn(-c2ccc(OC)cc2)c(=O)c2c1c1ccccc1n2C | inconclusive: 3.16 µM [inhibitor, single point] and inconclusive: 891 nM [inhibitor, full curve, poor fit]
O=C(NCc1ccccn1)C(=O)NCC1OCCN1C(=O)c1ccc(Cl)cc1 (configuration not stated) | inconclusive: 3.16 µM [activator, partial curve]
CC(=O)Nc1ccc(S(=O)(=O)N2CCC(C(=O)c3ccc(F)cc3)CC2)cc1 | inconclusive: 11.2 µM [inhibitor, partial curve]
COC(=O)c1sc(NC(=O)c2cc3c(s2)CCCC3)nc1C | inactive
COc1ccccc1C(=O)Nc1cc(C)on1 | inactive
COC(=O)C1c2c(n(C)c3ccccc23)[C@H]2[C@@H](C)[C@H](OC)c3ccccc3[C@@H]12 (some centres not stated) | inconclusive: 3.35 µM [inhibitor, partial curve, poor fit]
O=C1NCCCC1C(=O)N/N=C/c1ccc(Cl)cc1 (configuration not stated) | inconclusive: 35.5 µM [inhibitor, single point]
CCOC(=O)c1c(NC(=O)COc2ccc(OC)cc2)sc(C(=O)N(CC)CC)c1C | inactive
Cn1c(=O)c(Nc2ccc(Cl)cc2)c2c3c(cccc31)C(=O)c1ccccc1-2 | inconclusive: 20 µM [inhibitor, single point]
COc1ccc(-n2c(/C=C3/C(=O)Nc4ccccc43)nc3ccccc3c2=O)cc1 | inconclusive: 5.01 µM [inhibitor, partial curve]
Cc1ccc(C(c2cc(Cl)c3cccnc3c2O)N2CCN(C)CC2)cc1 (configuration not stated) | inconclusive: 35.5 µM [inhibitor, single point]
O=C(O)CCn1cc(C=C2C(=O)NC(=S)NC2=O)c(-c2cccc(Cl)c2)n1 | inconclusive: 1.12 µM [inhibitor, partial curve, poor fit]
COc1cccc(-c2noc(COc3cccc(C)c3C)n2)c1 | inconclusive: 35.5 µM [activator, single point]
CN(C)CC(=O)Nc1ccc(Oc2ccc(Cl)cc2)cc1 | inconclusive: 35.5 µM [inhibitor, single point]
S=c1[nH]c(-c2ccc(Br)cc2)cn1CCc1ccccc1 | inactive
CCC1=Nc2cc(C(=O)N3CCC(C)CC3)ccc2Sc2ccc(C)cc21 | inactive
COc1ccc(N2C(=O)c3ccccc3NC2c2cccnc2)cc1 (configuration not stated) | inconclusive: 6.31 µM [activator, single point]
Cc1cccc(CNC(=O)C2CCN(S(=O)(=O)c3cccc4nonc34)CC2)c1 | inactive
CC(C)N(CC#CCC1(O)c2ccccc2-c2ccccc21)C(C)C | inconclusive: 4.47 µM [inhibitor, partial curve, poor fit]
